In data set [1] the target is A13DBD WT (mouse (murine)) (UniProt Q62424). In words: NMR. As to conditions: complex used for methyl assignment, NMR complex: 20 mM NaPO4 pH 6.0, 5 mM MgCl2, 10% D2O, 310 K, recombinant protein, residues 320-386, protein details: His-tag removed by thrombin, letters put together from the description.
Data set [2] has the same target. Kind of data set: competition with a labelled probe. Conditions: 1 uM or more needed to displace consensus, 400 nM protein; recombinant protein; residues 320-386; protein details: His-tag removed by thrombin; label: unlabeled competitor; folded or branched DNA.

The chains behind the UniProt entries cited, without tags or fusion partners. Residues count along the entry.
UniProt Q62424, 320-386: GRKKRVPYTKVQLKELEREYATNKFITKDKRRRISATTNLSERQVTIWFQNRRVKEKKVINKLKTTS

For some of these results: The comparison behind a weaker result is the experiment's own reference, which may not be listed here. For some of these results: For at least one entry, the source does not settle the construct or the ends of the probe. For some of these results: At least one verdict was read from the data and is not stated in words by the source.

Consider CAAAUAAAATC / GATTTTATTTG [11-mer T5U], for which the binding result in data set [1] (deoxyuridine at T5 (DNA strand)) is recorded as “binds”.

In the case of “CAAATAAAATC / GATTTUATTTG [11-mer T6*dU (T17U)]”, the binding result in data set [1] (deoxyuridine at T6*) is recorded as “binds”. For “CAAATAAAATC / GATTTTAUTTG [11-mer T4*dU (T19U)]”, in data set [1] (deoxyuridine at T4*), the binding result is reported as “binds”. Turning to TGACTGACTGACTGCCCCCCAGTCAG [Scrambled], the binding result in data set [2] is reported as “binds more weakly”.

The values are drawn from article PMC3148250.
